In the supplement of paper PMC3334620:
The full ranking holds about 33,000 sequences; the median of “E-score (-0.5 to 0.5)” is about -8e-05, and the highest 2% start at about 0.23. The list shows a part of the results.

molecular target: T1, Nrg2 (UniProt P38082); assay: PBM E-score (8-mer binding enrichment) (E-score (-0.5 to 0.5)); higher = stronger / more preferred TF binding; details: protein concentration: 100 nM; construct: GST-full length
T1 sequence: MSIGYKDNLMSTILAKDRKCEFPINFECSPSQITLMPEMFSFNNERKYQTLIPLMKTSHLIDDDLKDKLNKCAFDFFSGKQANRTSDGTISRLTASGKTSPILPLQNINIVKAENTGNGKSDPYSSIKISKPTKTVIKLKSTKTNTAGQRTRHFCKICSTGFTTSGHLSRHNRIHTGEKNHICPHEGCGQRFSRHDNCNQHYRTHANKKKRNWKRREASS
Summary of the method: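 Universal all-10-mer Agilent arrays, double-stranded by primer extension on fresh or once-stripped slides, were probed with about 100-200 nM GST-tagged yeast transcription factors made by PURExpress. Fluorescent anti-GST detected bound protein, and masliner normalised the scans. E-scores from the Universal PBM Analysis Suite were given to each ungapped eight-base word pooled with its reverse complement.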

Sequence	PBM E-score
GCTTGGAA	0.0177
AATTTAAA	0.142
GACCACGC	-0.0928
CCACACGC	0.0944
TCTCGCCA	0.013
CGTTGTTC	0.0424
CAAGTAAA	-0.0616
CGTGCTAC	-0.207
ACCTGGTC	0.135
CTGGTAGA	-0.098
ACAATTTC	0.0969
CATTCGGA	0.0301
CCATCCAA	-0.0545
CGGGGTAA	-0.0761
ATCTGCCG	0.008
CTCTGTAA	-0.215
GCTTCCGA	0.0136
ATATGGTG	0.0491
CCAACTTC	-0.105
GACCAGTA	-0.174
GTGAATTA	0.151
ACCCCCAG	-0.291

Sequence	PBM E-score
AGCTTCCA	0.0217
CTTAGAGC	-0.00176
ACAGAGGT	0.0138
AGCGATAA	0.0305
GGGTGGTA	-0.0955
CGTTGAAC	-0.141
CGTAACAC	-0.0425
ACAGGCCT	-0.155
GACACCTC	0.0684
CACTCTTA	0.0792
CTTGAAAC	0.0294
ACTCCAGA	-0.0958
GCGTGTCA	0.0683
GCCCGGGC	0.0278
ACTAGTAG	0.0854
AGAACGAT	0.103
CTTCGACA	-0.0858
ATGCGCAC	0.142
CGGAATAC	0.133
CATCCTAG	-0.0406
AGGAAGAG	-0.233
ATCGTACA	0.0896

Sequence	PBM E-score
AGGTCTCA	0.0451
ACACTCTA	0.0203
TACTAAAA	0.0854
TCCTCACA	-0.0328
ACGGAGAG	-0.0646
ACCCGTCT	-0.0804
AAATGTCA	-0.119
GAGAGTGA	0.133
CCGAACGA	0.0912
GGGAAACA	0.0372
ATTTTTTA	0.0804
AATGTATG	0.0522
AGCCCGCG	-0.161
TGTCGGAA	-0.0691
GATCGCCA	-0.00362
GACCGGAA	-0.033
CATCCATG	-0.0336
CAAACGAC	0.161
AGGGCGAA	-0.0411
AAAGCGTG	-0.0834
CCTGAGGC	-0.192
CCAGCCCA	-0.283

Shown bar-delimited: part of the list above
Sequence | PBM E-score
CCGAACGA | 0.0912
GGGAAACA | 0.0372

Continued.

Sequence	PBM E-score
AACGGGGA	0.108
GCCAAGGA	-0.0732
CGCTTTAC	-0.026
CGTGTTTA	-0.013
CGCGGACA	0.108
GCCTGCGA	-0.107
AATGAACT	0.149
TCATCCAA	0.106
GCAATTGA	0.118
CTGTTAGC	-0.0913
GCGGGAGA	-0.0486
ACTAAATC	0.153
CACACGGC	-0.0233
AAAGATGA	-0.0996
CAGTATAG	0.153
GGAAGTGA	0.103
AGATTGAG	0.0802
AAGATGAC	-0.0214
CAATCACC	0.0523
CAAAACGC	0.154
CGCGCGCC	0.211
ACAGAGGC	-0.172

Sequence	PBM E-score
ATAAGTAC	0.113
CCAAGGCG	-0.0286
ATTAAGGG	0.178
CGTTTTTC	-0.117
CCGCAGAC	-0.105
GACACCGC	0.0182
AAGAAGGA	-0.13
TGAGTGCA	0.0235
GAGTCAAC	-0.0564
AAGGATAT	0.0571
CCCGCAAG	-0.15
ACACCGCA	0.133
AATTTTTA	0.0865
AACACCCG	0.225
AATTAGGA	0.0556
GAAAATCA	0.0143
CAGGACAA	0.226
CCGGCCGC	-0.152
CCGTACGA	-0.0376
AGTCATGC	-0.115
CCCACGTA	0.0253
CTTCACCA	-0.113

Already shown: entries from further up.
Sequence	PBM E-score
AACACCCG	0.225
AATTAGGA	0.0556
GAAAATCA	0.0143
CAGGACAA	0.226
CCGGCCGC	-0.152
CCGTACGA	-0.0376
